The values below come from patent US7553630.

Sequences of proteins named here, by UniProt entry; tags and fusion partners are left off. A change or cut given only in a name is not applied to a line headed by its entry. Residues count along the entry.
UniProt P13943, residues 55-468: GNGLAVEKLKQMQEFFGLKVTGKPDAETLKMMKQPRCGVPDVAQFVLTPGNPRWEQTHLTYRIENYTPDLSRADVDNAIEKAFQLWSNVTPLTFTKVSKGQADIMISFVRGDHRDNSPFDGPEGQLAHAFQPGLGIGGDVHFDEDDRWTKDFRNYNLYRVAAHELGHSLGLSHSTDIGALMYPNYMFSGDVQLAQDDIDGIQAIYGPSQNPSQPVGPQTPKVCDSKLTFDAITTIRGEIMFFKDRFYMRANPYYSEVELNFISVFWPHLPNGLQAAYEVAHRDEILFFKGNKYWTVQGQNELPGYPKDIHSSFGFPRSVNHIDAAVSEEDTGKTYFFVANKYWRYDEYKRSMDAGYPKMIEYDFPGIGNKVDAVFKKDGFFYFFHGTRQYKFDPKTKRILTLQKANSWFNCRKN
UniProt P16035: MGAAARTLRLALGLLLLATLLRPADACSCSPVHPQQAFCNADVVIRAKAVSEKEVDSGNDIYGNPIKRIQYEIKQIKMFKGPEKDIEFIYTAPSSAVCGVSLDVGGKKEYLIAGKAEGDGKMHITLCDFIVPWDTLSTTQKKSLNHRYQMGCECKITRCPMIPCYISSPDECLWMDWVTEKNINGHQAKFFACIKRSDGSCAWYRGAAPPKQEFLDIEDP

No constants are given. Whether binding was seen depends on the method and setting. Some entries that bind do so weakly or less than the wild type.

This assay deals with plasmin-treated rabbit fibroblast interstitial procollagenase (46-kDa intermediate) (rabbit) (UniProt P13943). The experiment in a line: SDS-PAGE of unheated samples.

In the case of “CHO cell-derived recombinant human metalloproteinase inhibitor (MI) (from UniProt P16035 27-220)”, the binding entry was “binds”.
